Measurements reported in PubChem BioAssay AID1224830 (NIAID, 2016).
In all, the deposit lists about 18,000 reagents; shown is a random part of them. In the full data, about 2,900 (16%) are marked active. 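Calls are made per well; low scores hint the gene aids the LPS response, high scores that it dampens it.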 Repeated entries: four replicate wells of each siRNA pool.

Screen: 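Host factors that control LPS-induced TNF expression in human macrophages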 (primary screen)
System: human THP-1 monocytic leukaemia cells, TNF dual-luciferase reporter clone, PMA-differentiated to macrophage-like cells
Reagent: siRNA pool against human genes, 50 nM
Duration: LPS for 4 h, given about 3 days after siRNA transfection
Challenge: bacterial LPS (TLR4 ligand), 10 ng/ml
Read-out: 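TNF firefly reporter luminescence divided by renilla, normalised to the plate median, then turned into a robust z-score for each replicate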
Reading the numbers: TNF reporter robust z-score: higher = stronger TNF reporter response to LPS
Rule for the call: 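a well is active when its z-score exceeds 2.8 or falls below -1.5; control wells carry no call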

{"gene knocked down":"DHDH (dihydrodiol dehydrogenase)","TNF reporter robust z-score":-0.45,"Call":"inactive"}
{"gene knocked down":"DHDH (dihydrodiol dehydrogenase)","TNF reporter robust z-score":-0.29,"Call":"inactive"}
{"gene knocked down":"DHDH (dihydrodiol dehydrogenase)","TNF reporter robust z-score":-0.24,"Call":"inactive"}
{"gene knocked down":"DHDH (dihydrodiol dehydrogenase)","TNF reporter robust z-score":-0.52,"Call":"inactive"}
{"gene knocked down":"HROB (homologous recombination factor with OB-fold)","TNF reporter robust z-score":-0.5,"Call":"inactive"}
{"gene knocked down":"HROB (homologous recombination factor with OB-fold)","TNF reporter robust z-score":-0.26,"Call":"inactive"}
{"gene knocked down":"HROB (homologous recombination factor with OB-fold)","TNF reporter robust z-score":-0.1,"Call":"inactive"}
{"gene knocked down":"HROB (homologous recombination factor with OB-fold)","TNF reporter robust z-score":0.08,"Call":"inactive"}
{"gene knocked down":"USP53 (ubiquitin specific peptidase 53)","TNF reporter robust z-score":0.12,"Call":"inactive"}
{"gene knocked down":"USP53 (ubiquitin specific peptidase 53)","TNF reporter robust z-score":0.42,"Call":"inactive"}
{"gene knocked down":"USP53 (ubiquitin specific peptidase 53)","TNF reporter robust z-score":-0.33,"Call":"inactive"}
{"gene knocked down":"USP53 (ubiquitin specific peptidase 53)","TNF reporter robust z-score":0.64,"Call":"inactive"}
{"gene knocked down":"MTCL2 (microtubule crosslinking factor 2)","TNF reporter robust z-score":0.21,"Call":"inactive"}
{"gene knocked down":"MTCL2 (microtubule crosslinking factor 2)","TNF reporter robust z-score":0.33,"Call":"inactive"}
{"gene knocked down":"MTCL2 (microtubule crosslinking factor 2)","TNF reporter robust z-score":0.09,"Call":"inactive"}
{"gene knocked down":"MTCL2 (microtubule crosslinking factor 2)","TNF reporter robust z-score":0.26,"Call":"inactive"}
{"gene knocked down":"XIRP2 (xin actin binding repeat containing 2)","TNF reporter robust z-score":-1.13,"Call":"inactive"}
{"gene knocked down":"XIRP2 (xin actin binding repeat containing 2)","TNF reporter robust z-score":-0.29,"Call":"inactive"}
{"gene knocked down":"XIRP2 (xin actin binding repeat containing 2)","TNF reporter robust z-score":-1.56,"Call":"active"}
{"gene knocked down":"XIRP2 (xin actin binding repeat containing 2)","TNF reporter robust z-score":0.87,"Call":"inactive"}
{"gene knocked down":"FAM20B (FAM20B glycosaminoglycan xylosylkinase)","TNF reporter robust z-score":3.3,"Call":"active"}
{"gene knocked down":"FAM20B (FAM20B glycosaminoglycan xylosylkinase)","TNF reporter robust z-score":3.56,"Call":"active"}
{"gene knocked down":"FAM20B (FAM20B glycosaminoglycan xylosylkinase)","TNF reporter robust z-score":0.89,"Call":"inactive"}
{"gene knocked down":"FAM20B (FAM20B glycosaminoglycan xylosylkinase)","TNF reporter robust z-score":2.45,"Call":"inactive"}
{"gene knocked down":"WHAMM","TNF reporter robust z-score":0.06,"Call":"inactive"}
{"gene knocked down":"WHAMM","TNF reporter robust z-score":0.87,"Call":"inactive"}
{"gene knocked down":"WHAMM","TNF reporter robust z-score":0.68,"Call":"inactive"}
{"gene knocked down":"WHAMM","TNF reporter robust z-score":0.93,"Call":"inactive"}

7 entries from above, arranged by “TNF reporter robust z-score”, high to low:
{"gene knocked down":"FAM20B (FAM20B glycosaminoglycan xylosylkinase)","TNF reporter robust z-score":3.56,"Call":"active"}
{"gene knocked down":"FAM20B (FAM20B glycosaminoglycan xylosylkinase)","TNF reporter robust z-score":3.3,"Call":"active"}
{"gene knocked down":"FAM20B (FAM20B glycosaminoglycan xylosylkinase)","TNF reporter robust z-score":2.45,"Call":"inactive"}
{"gene knocked down":"FAM20B (FAM20B glycosaminoglycan xylosylkinase)","TNF reporter robust z-score":0.89,"Call":"inactive"}
{"gene knocked down":"XIRP2 (xin actin binding repeat containing 2)","TNF reporter robust z-score":0.87,"Call":"inactive"}
{"gene knocked down":"WHAMM","TNF reporter robust z-score":0.87,"Call":"inactive"}
{"gene knocked down":"WHAMM","TNF reporter robust z-score":0.06,"Call":"inactive"}

More reagents:
{"gene knocked down":"ACSBG2 (acyl-CoA synthetase bubblegum family member 2)","TNF reporter robust z-score":-0.13,"Call":"inactive"}
{"gene knocked down":"ACSBG2 (acyl-CoA synthetase bubblegum family member 2)","TNF reporter robust z-score":0.07,"Call":"inactive"}
{"gene knocked down":"ACSBG2 (acyl-CoA synthetase bubblegum family member 2)","TNF reporter robust z-score":-0.76,"Call":"inactive"}
{"gene knocked down":"ACSBG2 (acyl-CoA synthetase bubblegum family member 2)","TNF reporter robust z-score":0.38,"Call":"inactive"}
{"gene knocked down":"PLA2G15 (phospholipase A2 group XV)","TNF reporter robust z-score":0.49,"Call":"inactive"}
{"gene knocked down":"PLA2G15 (phospholipase A2 group XV)","TNF reporter robust z-score":0.81,"Call":"inactive"}
{"gene knocked down":"PLA2G15 (phospholipase A2 group XV)","TNF reporter robust z-score":-0.53,"Call":"inactive"}
{"gene knocked down":"PLA2G15 (phospholipase A2 group XV)","TNF reporter robust z-score":0.46,"Call":"inactive"}
{"gene knocked down":"CNN3 (calponin 3)","TNF reporter robust z-score":1.79,"Call":"inactive"}
{"gene knocked down":"CNN3 (calponin 3)","TNF reporter robust z-score":2,"Call":"inactive"}
{"gene knocked down":"CNN3 (calponin 3)","TNF reporter robust z-score":1.59,"Call":"inactive"}
{"gene knocked down":"CNN3 (calponin 3)","TNF reporter robust z-score":2.52,"Call":"inactive"}
{"gene knocked down":"SPATS1 (spermatogenesis associated serine rich 1)","TNF reporter robust z-score":-0.38,"Call":"inactive"}
{"gene knocked down":"SPATS1 (spermatogenesis associated serine rich 1)","TNF reporter robust z-score":1.04,"Call":"inactive"}
{"gene knocked down":"SPATS1 (spermatogenesis associated serine rich 1)","TNF reporter robust z-score":-1.16,"Call":"inactive"}
{"gene knocked down":"SPATS1 (spermatogenesis associated serine rich 1)","TNF reporter robust z-score":-0.17,"Call":"inactive"}
{"gene knocked down":"EGR4 (early growth response 4)","TNF reporter robust z-score":0.37,"Call":"inactive"}
{"gene knocked down":"EGR4 (early growth response 4)","TNF reporter robust z-score":0.58,"Call":"inactive"}
{"gene knocked down":"EGR4 (early growth response 4)","TNF reporter robust z-score":0.25,"Call":"inactive"}
{"gene knocked down":"EGR4 (early growth response 4)","TNF reporter robust z-score":0.31,"Call":"inactive"}
